Values quoted from earlier work, collected in patent publication US5248604A, “Enzymatically active recombinant human acetylcholinesterase and hosts and vectors for expression thereof” (priority 1991, dated 1993).
At least one structure is not confirmed: it was looked up by name or label, or the drawing left a doubt.

Test system: naturally-occurring acetylcholinesterase (literature value, Ellman)
Details: value reported in the literature (Ellman, 1981); cited from earlier work

For `CC(=O)SCC[N+](C)(C)C` [acetylthiocholine, Acetylthiocholine], the Km is listed as 100 µM.
